Assay [1] addresses T1, recombinant his-tagged CTCF (human) (UniProt P49711).
T1 sequence: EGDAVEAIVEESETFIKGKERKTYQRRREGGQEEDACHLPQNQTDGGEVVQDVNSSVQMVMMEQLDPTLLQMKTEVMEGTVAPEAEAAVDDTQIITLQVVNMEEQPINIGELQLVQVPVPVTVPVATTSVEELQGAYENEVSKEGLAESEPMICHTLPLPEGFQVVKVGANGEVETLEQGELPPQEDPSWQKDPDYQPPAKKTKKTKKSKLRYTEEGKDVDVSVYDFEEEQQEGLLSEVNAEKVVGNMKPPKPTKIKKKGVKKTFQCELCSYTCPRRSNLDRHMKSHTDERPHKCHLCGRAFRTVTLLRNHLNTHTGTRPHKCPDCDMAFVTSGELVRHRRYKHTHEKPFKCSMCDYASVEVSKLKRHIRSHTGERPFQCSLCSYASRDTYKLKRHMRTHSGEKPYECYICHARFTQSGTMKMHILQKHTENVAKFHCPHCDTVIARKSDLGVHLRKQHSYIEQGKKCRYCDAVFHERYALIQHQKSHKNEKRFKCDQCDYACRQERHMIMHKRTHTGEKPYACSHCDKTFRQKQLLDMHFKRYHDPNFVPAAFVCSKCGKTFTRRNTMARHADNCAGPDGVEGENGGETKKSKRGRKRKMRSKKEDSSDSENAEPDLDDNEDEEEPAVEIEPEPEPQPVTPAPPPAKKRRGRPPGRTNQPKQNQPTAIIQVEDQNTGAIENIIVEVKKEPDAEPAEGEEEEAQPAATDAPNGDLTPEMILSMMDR
The assay can be described thus: pull-down; his-CTCF held on Ni-NTA agarose beads, incubated with HeLa nuclear extract 1 h at 4°C; 8 washes with RIPA buffer with 150 mM NaCl (or 300 mM NaCl, more stringent panel); Western blot; only the target purified. In general terms: Immunoblotting shows a protein as a band on a membrane.

Sequences of proteins named here, by UniProt entry; tags and fusion partners are left off.
UniProt P18615: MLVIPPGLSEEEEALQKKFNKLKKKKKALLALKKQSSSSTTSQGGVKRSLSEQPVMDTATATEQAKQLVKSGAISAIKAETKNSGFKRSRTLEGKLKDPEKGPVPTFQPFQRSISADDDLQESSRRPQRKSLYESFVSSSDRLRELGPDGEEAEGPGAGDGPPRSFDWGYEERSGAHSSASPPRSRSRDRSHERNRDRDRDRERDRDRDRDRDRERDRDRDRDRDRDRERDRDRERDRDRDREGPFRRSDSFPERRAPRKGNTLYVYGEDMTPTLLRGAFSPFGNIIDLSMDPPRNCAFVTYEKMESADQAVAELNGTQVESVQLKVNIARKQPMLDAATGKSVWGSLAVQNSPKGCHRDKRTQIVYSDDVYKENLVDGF
UniProt Q9H3P2: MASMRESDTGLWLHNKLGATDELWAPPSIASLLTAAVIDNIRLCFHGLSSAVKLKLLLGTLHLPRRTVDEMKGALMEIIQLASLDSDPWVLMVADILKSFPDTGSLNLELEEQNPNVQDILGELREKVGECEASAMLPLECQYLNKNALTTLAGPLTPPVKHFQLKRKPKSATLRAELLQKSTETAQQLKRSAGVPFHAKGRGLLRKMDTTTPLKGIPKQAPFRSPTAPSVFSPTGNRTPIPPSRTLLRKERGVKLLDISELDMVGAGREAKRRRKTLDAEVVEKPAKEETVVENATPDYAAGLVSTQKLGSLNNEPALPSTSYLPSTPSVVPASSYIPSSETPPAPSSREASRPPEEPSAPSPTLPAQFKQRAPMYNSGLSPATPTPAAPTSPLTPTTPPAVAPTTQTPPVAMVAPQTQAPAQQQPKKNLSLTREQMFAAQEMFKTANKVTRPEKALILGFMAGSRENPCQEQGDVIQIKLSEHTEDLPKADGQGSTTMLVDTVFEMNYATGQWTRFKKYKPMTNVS
UniProt P50750: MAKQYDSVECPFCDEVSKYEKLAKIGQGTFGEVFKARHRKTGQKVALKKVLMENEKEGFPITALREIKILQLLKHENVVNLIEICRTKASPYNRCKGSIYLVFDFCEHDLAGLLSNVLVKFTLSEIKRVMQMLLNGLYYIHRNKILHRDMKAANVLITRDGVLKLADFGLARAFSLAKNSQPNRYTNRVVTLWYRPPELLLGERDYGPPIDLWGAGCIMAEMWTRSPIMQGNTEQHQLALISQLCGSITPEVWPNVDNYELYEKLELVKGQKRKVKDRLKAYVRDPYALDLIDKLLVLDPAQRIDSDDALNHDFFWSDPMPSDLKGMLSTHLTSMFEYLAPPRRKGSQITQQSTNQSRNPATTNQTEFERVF

Another assay deals with GST-Nelf-E (UniProt P18615). The assay can be described thus: pull-down; 500 ng GST-Nelf-A or GST-Nelf-E held on glutathione sepharose 4B, 500 ng his-CTCF added in 50 mM Tris pH7.5, 250 mM NaCl, 2 mM EDTA, 0.1% NP-40, 1 h at 4°C; Western blot with CTCF antibodies; both purified.
For another assay, the target named is GST-Nelf-A (UniProt Q9H3P2). Described as above.
Assay [2] concerns the target FLAG-Nelf-E containing NELF complex (UniProt P18615). The assay can be described thus: pull-down; 500 ng his-CTCF with 500 ng FLAG-NELF or FLAG-DSIF in 50 mM Tris pH7.5, 250 mM NaCl, 2 mM EDTA, 0.1% NP-40, 1 h at 4°C; captured on anti-FLAG M2 affinity gel, eluted with FLAG peptide; Western blot; both purified.

Results are given in words; binding and its absence hold for the method and conditions named. For some of these results: Binding seen in cells or lysates may run through a third protein. Some results given as binding are weak or reduced against the parent protein; the word gives no strength. Where a sequence is shown, tags or fusion partners need not be part of it.

On to “p42 isoform of CDK9 (from UniProt P50750 1-372)”, for which the binding entry in assay [1] is “binds”.

B1: recombinant his-tagged CTCF (protein, UniProt P49711 2-727)
chain: T1 sequence
Turning to B1, the binding result with GST-Nelf-E is recorded as “binds”; with GST-Nelf-A, “binds”; in assay [2], “binds weakly”.

(Values after article PMC4802788.)
